Results deposited as PubChem BioAssay AID1259276 (Sanger Institute, 2017).

- Purpose: 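Kinome-wide search for kinases colon cancer cells need, and for drug partners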 (primary screen)
- Cell system: human C2BBe1 colorectal cancer cells
- Reagents: siRNA pool against human genes
- Treatment: DMSO vehicle, or one anchor drug: BYL719 at 1 µM, cetuximab at 5 µg/ml, or trametinib at 10 nM; exposure length not stated
- Measurement: 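Viability after knock-down relative to non-targeting siRNA controls, averaged across replicates, given as ratio and control-derived robust z-score, with per-drug synergy scores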
- Direction: viability robust z-score, siRNA alone: higher = more viable cells after knock-down
- Rule for the call: 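Called essential when knock-down alone gives a viability robust z-score below -3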
- Meaning of the calls: active = essential (siRNA alone); inactive = no change (siRNA alone)
In all, the deposit lists 794 reagents; below is a part drawn at random. In the full data, 24 (3%) got an active call. 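Calls come only from the siRNA-alone arm; drug synergy scores do not affect them.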 Not all columns of the deposit are shown. The record does not give: the amount of reagent, the time to read-out.

Against SGK2 (serum/glucocorticoid regulated kinase 2), the values are viability robust z-score, siRNA alone 0.472; inactive. PLK3 (polo like kinase 3) showed viability robust z-score, siRNA alone 0.472; inactive. With knock-down of PRKCE (protein kinase C epsilon) the results were viability robust z-score, siRNA alone 0.472; inactive. Silencing of ROR2 (ROR family WNT receptor 2) gave: viability robust z-score, siRNA alone -0.623; inactive. PRKCH (protein kinase C eta) scored viability robust z-score, siRNA alone 0.472; inactive. Silencing of TSSK3 (testis specific serine kinase 3) gave: viability robust z-score, siRNA alone -0.286; inactive.

Knock-down of FLT1 (fms related receptor tyrosine kinase 1) gave: viability robust z-score, siRNA alone -1.76; inactive.

Laid out differently: entries from further up
Target gene,"viability robust z-score, siRNA alone",outcome
PRKCE (protein kinase C epsilon),0.472,inactive
ROR2 (ROR family WNT receptor 2),-0.623,inactive

More records:
CLK4 (CDC like kinase 4) scored viability robust z-score, siRNA alone -1.78; inactive. PEAK1 (pseudopodium enriched atypical kinase 1) showed viability robust z-score, siRNA alone -2.8; inactive. With knock-down of NME5 (NME/NM23 family member 5) the results were viability robust z-score, siRNA alone 0.472; inactive. Against STKLD1 (serine/threonine kinase like domain containing 1) the deposit lists viability robust z-score, siRNA alone 0.472; inactive. Depletion of KALRN (kalirin RhoGEF kinase) gave: viability robust z-score, siRNA alone 0.438; inactive.
